This data set in a line: peptide synthesis. The settings on record: whole synthesis, HPLC, TFA salt (eptifibatide).

In the case of atosiban, the “crude purity (method not given)” value worked out at 73.5%.

(Values after patent US20100317827 (published 2010).)
